Experimental findings from article PMC8918779 are described below.

By UniProt entry, the sequences of proteins in these tests, tags left out.
UniProt P53350: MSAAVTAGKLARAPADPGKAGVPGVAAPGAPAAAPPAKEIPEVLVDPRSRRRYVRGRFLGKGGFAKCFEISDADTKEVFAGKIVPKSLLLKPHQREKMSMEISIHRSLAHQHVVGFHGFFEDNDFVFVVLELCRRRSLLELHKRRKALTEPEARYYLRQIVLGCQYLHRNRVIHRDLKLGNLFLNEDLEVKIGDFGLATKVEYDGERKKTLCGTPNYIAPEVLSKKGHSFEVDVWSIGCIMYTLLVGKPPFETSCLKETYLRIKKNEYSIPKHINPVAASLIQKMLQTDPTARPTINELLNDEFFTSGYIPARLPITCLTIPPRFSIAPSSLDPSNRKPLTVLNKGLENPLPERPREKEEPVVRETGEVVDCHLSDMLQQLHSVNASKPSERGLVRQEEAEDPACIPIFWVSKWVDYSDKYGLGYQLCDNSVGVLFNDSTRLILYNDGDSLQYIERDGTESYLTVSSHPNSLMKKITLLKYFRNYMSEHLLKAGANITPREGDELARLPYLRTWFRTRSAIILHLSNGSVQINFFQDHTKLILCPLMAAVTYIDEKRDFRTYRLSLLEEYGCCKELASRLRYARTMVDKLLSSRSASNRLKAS
UniProt Q00536: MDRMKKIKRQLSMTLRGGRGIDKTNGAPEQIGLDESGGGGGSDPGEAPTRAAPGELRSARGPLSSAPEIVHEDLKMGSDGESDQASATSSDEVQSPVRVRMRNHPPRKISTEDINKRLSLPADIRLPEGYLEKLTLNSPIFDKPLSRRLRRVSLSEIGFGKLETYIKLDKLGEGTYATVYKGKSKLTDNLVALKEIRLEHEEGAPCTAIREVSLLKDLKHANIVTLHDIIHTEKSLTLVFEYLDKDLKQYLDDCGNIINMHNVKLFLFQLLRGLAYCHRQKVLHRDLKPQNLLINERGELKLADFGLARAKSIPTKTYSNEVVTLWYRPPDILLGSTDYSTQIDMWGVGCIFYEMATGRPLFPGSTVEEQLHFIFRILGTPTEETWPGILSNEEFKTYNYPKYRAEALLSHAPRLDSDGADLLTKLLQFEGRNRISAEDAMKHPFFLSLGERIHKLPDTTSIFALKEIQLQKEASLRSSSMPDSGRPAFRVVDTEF

These are yes or no findings as the source states them, for the method shown. Binding seen in cells or lysates may run through a third protein. Some binding calls cover weakened binding; strength is not graded here.

In this test the target is HA-tagged wild-type PLK1 (UniProt P53350). Put plainly: co-IP; HA-tagged PLK1 (WT, KD or PBD mutant; 1 µg each) transiently transfected in U2OS; PLK1 pulled down by anti-HA antibody on protein A or G sepharose, overnight at 4°C; western blot for endogenous PCTAIRE1.

Take PCTAIRE1 (from UniProt Q00536 1-496): the binding result is listed as “binds”.
